This is an account of results in publication PMC4161973.

Sequences of proteins named here, by UniProt entry; tags and fusion partners are left off. A change or cut given only in a name is not applied to a line headed by its entry.
UniProt P39938: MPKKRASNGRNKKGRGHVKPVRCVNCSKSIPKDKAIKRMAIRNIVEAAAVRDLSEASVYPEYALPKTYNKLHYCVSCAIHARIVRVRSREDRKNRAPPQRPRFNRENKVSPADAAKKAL

Results are given in words; binding and its absence hold for the method and conditions named. Binding seen in cells or lysates may run through a third protein. A result given as binding can be weak or reduced; the word gives no strength. Sequences can lack the tags named with a protein.

Assay [1] addresses T1, GST-Kap123 (S. cerevisiae) (UniProt P40069).
T1 sequence: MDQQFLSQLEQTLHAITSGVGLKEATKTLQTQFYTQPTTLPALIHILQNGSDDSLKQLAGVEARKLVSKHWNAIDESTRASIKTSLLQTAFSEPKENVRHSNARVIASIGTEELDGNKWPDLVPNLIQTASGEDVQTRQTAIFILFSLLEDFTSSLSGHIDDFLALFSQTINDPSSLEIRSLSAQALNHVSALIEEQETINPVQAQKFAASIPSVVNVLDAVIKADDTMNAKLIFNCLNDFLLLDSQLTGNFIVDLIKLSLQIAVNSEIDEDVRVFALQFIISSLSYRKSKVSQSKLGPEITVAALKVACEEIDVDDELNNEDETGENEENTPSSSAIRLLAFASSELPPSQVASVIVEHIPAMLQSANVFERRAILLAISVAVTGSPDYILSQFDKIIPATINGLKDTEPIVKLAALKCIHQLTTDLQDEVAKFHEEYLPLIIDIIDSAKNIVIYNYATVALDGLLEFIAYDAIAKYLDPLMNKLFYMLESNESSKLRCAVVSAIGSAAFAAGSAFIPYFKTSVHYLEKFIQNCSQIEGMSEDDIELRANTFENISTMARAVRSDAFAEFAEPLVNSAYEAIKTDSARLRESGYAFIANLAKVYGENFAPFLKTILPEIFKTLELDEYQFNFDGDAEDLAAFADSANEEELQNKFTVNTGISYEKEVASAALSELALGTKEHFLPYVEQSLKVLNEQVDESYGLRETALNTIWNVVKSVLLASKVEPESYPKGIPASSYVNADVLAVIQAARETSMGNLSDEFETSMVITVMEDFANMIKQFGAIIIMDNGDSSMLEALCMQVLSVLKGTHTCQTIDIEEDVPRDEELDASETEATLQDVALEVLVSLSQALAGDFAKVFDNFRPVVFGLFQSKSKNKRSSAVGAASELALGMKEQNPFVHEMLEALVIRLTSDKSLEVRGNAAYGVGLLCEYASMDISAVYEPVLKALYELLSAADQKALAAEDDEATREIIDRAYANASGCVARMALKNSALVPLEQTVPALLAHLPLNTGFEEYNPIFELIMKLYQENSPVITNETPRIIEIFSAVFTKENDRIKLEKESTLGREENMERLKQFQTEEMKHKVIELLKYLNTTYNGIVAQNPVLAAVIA
The assay is described as follows: pull-down; dissociation assay, 1 hr: GST-importin:r-protein^FLAG complexes pre-formed on Glutathione Sepharose (r-protein from E. coli lysate) incubated with buffer alone, 1.5 µM RanGTP, 1.5 µM Tsr2 or His6-Tsr2, or 3 nM 3'-end of 18S rRNA for 1 hr at 4°C; only the target purified.

Another assay has as its target T2, GST-Pse1 (S. cerevisiae) (UniProt P32337).
T2 sequence: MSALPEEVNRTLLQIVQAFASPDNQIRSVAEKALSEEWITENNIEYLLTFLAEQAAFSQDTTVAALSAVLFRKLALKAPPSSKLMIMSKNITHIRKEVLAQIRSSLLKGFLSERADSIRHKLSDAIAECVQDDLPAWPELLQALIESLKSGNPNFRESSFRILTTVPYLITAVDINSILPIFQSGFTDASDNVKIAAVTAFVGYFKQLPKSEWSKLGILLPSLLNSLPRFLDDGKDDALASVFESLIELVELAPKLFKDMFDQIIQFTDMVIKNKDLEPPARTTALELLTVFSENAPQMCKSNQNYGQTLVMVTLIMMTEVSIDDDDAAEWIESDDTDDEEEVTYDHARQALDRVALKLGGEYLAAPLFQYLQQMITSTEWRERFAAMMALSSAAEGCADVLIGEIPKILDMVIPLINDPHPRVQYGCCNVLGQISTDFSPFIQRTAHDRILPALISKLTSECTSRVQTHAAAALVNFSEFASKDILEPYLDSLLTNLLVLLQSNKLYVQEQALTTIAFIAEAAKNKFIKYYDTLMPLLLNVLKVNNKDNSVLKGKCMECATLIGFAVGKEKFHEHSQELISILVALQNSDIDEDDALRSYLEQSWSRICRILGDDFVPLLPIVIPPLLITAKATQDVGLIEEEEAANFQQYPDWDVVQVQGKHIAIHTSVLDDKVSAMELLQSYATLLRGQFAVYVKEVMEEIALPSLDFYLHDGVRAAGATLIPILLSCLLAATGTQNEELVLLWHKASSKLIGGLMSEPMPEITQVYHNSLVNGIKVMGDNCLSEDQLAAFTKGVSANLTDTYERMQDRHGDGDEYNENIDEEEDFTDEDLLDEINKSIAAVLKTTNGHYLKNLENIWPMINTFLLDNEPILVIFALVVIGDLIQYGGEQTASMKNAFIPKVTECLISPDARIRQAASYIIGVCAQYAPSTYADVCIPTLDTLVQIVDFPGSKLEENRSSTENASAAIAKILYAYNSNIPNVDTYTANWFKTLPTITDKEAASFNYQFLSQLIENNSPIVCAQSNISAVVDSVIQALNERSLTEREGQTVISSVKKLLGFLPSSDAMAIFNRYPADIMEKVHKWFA
Described as above.

In the case of eS26^FLAG (from UniProt P39938), the binding entry (in assay [1]; with GST-Pse1 (S. cerevisiae)) was “binds” each time.
